In the supplement of paper PMC10849652:
This is one part of the list.

The chains behind the UniProt entries cited, without tags or fusion partners. Where a name states a change or a piece, a line headed by the entry shows the natural chain unless it says otherwise.
UniProt Q9UBF6, whole entry, looked up: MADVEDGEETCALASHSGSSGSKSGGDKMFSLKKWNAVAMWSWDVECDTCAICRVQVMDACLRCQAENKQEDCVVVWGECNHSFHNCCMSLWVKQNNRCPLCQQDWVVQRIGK
UniProt Q8TA86: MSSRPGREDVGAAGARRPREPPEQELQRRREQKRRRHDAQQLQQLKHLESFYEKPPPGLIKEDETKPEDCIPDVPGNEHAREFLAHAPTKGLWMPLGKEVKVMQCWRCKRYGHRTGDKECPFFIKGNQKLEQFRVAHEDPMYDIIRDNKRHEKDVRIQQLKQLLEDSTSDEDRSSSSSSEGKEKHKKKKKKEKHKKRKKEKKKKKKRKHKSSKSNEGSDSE
UniProt Q9P2E9: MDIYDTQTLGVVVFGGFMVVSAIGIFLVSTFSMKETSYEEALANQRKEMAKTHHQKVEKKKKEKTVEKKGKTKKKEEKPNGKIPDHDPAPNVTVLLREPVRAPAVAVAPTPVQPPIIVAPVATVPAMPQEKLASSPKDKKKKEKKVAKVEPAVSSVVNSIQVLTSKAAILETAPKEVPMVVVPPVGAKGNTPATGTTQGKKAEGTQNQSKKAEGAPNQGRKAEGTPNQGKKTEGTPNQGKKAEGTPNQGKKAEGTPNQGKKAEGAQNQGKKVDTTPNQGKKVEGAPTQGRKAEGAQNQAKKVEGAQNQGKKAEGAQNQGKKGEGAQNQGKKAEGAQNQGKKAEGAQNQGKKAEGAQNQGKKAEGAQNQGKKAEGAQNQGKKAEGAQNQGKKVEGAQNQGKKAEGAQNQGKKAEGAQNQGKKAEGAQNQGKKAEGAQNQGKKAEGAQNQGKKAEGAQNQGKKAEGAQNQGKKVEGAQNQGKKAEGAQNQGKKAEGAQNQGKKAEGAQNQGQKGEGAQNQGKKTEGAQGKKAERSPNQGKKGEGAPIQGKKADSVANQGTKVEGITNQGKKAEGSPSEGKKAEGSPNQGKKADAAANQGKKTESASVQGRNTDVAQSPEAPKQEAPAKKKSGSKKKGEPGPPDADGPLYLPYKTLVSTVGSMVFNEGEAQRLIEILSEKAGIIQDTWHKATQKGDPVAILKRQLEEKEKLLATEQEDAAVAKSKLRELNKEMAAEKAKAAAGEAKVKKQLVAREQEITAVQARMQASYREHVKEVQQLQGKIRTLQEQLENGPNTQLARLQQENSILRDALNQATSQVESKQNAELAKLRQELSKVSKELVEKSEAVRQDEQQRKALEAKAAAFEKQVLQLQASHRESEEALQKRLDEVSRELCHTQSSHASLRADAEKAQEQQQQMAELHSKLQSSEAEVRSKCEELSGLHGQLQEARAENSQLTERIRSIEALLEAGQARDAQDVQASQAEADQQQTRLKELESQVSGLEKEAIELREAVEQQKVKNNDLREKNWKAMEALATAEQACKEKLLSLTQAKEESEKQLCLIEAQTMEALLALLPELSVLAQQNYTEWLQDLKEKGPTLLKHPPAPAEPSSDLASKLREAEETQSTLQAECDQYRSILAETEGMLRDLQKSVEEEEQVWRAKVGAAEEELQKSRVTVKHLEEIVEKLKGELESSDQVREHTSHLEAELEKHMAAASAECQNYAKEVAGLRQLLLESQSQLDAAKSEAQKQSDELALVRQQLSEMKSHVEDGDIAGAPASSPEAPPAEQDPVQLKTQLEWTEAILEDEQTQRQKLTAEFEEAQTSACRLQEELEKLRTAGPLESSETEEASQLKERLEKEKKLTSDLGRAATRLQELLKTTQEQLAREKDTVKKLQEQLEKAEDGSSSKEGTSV
UniProt Q96S38: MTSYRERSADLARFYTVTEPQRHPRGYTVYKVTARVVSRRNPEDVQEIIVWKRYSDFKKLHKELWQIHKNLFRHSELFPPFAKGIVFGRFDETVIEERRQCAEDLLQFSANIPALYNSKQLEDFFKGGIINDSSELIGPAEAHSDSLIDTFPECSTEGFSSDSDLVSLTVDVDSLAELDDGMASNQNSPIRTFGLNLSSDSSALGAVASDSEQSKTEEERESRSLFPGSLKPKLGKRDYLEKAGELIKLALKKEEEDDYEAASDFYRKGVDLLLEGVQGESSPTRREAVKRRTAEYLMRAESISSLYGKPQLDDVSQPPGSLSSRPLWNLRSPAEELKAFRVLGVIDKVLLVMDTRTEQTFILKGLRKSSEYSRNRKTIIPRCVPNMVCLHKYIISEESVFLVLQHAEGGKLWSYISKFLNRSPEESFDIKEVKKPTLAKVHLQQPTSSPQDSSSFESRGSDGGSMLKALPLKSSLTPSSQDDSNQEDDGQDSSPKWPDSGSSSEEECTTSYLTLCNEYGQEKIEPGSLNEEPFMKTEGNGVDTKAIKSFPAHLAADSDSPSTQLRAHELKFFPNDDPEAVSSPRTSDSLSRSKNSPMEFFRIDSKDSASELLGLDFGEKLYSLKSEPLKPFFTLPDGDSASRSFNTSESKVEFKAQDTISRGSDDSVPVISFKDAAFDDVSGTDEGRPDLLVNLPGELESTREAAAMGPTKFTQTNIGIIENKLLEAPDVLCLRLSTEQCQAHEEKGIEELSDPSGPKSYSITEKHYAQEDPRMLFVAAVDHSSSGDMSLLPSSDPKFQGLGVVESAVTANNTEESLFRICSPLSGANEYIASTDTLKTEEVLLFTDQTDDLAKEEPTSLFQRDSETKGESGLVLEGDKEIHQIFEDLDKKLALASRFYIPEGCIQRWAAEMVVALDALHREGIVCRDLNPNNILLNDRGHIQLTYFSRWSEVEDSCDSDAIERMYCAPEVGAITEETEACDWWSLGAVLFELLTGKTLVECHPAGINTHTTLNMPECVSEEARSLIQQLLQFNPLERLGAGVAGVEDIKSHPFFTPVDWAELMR
UniProt O75818: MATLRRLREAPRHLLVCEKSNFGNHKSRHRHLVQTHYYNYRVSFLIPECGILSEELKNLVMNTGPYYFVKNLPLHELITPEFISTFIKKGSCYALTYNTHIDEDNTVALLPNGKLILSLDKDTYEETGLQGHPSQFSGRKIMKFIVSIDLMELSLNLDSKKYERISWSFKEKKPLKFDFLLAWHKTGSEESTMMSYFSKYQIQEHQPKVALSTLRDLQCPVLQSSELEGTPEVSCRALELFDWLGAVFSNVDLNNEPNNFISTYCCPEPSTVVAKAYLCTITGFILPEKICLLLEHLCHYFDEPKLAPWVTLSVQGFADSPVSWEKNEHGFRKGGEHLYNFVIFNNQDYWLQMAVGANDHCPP
UniProt P62070: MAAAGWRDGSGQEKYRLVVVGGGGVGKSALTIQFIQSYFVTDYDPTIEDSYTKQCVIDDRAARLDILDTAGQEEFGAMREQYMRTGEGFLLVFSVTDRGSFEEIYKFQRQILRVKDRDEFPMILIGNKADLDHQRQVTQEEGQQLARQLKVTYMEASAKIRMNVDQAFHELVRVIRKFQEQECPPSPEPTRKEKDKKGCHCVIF
UniProt Q96BH1: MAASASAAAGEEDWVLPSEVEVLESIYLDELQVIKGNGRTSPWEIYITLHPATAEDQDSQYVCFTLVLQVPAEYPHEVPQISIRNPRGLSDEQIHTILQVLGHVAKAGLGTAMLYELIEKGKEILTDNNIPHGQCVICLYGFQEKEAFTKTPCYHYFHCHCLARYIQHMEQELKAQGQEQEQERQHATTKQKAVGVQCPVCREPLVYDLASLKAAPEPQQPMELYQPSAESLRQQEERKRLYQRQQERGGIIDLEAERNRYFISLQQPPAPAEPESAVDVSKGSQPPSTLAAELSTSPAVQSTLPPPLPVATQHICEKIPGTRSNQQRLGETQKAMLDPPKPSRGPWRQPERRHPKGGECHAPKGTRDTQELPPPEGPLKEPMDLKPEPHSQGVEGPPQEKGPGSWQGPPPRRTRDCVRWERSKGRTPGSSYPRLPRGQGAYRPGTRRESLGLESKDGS
UniProt P35244: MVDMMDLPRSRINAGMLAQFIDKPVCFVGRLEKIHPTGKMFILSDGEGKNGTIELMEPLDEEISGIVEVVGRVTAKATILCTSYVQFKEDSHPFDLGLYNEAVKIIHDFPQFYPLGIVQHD
UniProt Q15349, whole entry, looked up: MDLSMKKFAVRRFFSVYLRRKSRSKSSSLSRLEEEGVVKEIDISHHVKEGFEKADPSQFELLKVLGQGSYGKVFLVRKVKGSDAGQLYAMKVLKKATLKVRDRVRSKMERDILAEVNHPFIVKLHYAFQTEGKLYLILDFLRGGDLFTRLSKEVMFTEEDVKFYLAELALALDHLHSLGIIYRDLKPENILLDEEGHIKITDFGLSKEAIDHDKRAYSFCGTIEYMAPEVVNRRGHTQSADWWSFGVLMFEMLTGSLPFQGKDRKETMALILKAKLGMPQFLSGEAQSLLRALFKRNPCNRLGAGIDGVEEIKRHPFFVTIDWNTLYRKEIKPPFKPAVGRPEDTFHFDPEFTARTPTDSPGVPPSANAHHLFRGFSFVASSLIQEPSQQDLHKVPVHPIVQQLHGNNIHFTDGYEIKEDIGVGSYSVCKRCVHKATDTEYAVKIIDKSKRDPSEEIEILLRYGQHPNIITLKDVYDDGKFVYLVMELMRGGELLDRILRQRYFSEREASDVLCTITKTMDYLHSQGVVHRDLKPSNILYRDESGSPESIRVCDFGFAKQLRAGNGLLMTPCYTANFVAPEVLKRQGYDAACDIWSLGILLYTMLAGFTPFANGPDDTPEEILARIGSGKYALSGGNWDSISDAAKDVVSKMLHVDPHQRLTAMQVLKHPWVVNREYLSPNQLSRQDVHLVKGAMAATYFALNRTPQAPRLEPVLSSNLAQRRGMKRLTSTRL
UniProt O75695: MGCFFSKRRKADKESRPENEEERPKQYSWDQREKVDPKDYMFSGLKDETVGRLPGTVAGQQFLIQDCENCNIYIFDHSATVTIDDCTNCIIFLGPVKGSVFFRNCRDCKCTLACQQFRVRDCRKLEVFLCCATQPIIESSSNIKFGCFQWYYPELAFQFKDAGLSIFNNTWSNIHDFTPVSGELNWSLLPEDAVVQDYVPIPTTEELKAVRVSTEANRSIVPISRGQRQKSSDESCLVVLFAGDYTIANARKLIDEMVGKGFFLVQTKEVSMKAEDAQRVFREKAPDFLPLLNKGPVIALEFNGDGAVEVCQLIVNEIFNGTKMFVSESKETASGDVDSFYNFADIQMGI
UniProt Q7L523, whole entry, looked up: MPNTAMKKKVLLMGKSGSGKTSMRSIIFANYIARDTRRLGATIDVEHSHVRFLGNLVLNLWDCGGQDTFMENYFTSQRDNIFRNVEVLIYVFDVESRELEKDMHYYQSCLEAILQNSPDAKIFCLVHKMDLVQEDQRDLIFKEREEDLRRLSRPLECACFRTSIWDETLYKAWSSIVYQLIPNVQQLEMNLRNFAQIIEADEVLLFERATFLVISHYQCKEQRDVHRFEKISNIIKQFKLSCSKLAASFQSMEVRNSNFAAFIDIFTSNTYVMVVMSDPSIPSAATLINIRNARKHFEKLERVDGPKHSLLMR
UniProt P23443: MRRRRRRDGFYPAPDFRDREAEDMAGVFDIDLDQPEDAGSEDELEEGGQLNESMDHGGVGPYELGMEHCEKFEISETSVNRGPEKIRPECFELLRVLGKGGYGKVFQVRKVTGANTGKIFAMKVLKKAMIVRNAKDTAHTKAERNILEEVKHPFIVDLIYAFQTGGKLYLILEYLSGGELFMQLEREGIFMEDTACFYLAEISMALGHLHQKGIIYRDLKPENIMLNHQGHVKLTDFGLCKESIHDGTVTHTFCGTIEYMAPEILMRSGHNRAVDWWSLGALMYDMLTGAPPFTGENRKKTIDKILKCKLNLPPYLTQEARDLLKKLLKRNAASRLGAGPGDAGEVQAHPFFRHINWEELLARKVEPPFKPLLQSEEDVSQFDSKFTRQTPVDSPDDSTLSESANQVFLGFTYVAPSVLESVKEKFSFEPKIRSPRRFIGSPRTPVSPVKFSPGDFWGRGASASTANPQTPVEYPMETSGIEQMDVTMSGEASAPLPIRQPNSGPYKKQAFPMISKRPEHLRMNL
UniProt P04844: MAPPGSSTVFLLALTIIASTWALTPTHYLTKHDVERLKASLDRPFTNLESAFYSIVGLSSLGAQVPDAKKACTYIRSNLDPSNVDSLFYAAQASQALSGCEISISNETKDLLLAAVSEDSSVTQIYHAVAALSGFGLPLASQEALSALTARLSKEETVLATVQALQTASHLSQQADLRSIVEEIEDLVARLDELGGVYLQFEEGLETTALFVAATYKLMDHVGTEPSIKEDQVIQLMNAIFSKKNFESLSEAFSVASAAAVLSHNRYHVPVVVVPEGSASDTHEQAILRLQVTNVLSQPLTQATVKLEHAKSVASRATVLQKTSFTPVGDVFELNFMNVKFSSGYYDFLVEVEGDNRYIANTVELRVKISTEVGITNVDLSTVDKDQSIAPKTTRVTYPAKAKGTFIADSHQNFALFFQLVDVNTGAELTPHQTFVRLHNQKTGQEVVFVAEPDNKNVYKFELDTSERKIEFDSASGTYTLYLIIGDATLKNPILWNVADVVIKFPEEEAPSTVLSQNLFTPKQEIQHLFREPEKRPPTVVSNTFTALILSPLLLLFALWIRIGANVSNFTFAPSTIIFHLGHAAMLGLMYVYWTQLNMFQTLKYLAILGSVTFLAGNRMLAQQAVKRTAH

Compound: COc1cc2ncnc(Nc3ccc(F)c(Cl)c3)c2cc1OCCCN1CCOCC1 [gefitinib]
Assay: log2 fold change, soluble protein after heating vs DMSO (PISA); higher = thermal stabilisation; K562 cells, 10 uM, 30 min; active = over 0.2 and 3.5 SD of the protein, either way, in both replicates (recomputed)
Procedure, shortened: (§1)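 Soluble protein was quantified by TMTpro 16plex LC-MS/MS after channel sums were equalised. It was obtained as the supernatant after 21,000xg for 90 min from pooled aliquots of K562 cells (2×10^6 cells/mL, 10 μM compound, 30 min) heated for 3 min across 48°C-58°C and extracted in PBS with 0.5% NP-40 at 4°C. Thermal stability values are relative to control samples and come from duplicates. They are given as log2 fold changes.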

log2 fold change, inactive:
RNF7 (UniProt Q9UBF6) -0.013
RPS20 isoform 2 (UniProt P60866) -0.036
RPS27A (UniProt P62979) -0.076
RP9 (UniProt Q8TA86) -0.035
RRBP1 (UniProt Q9P2E9) -0.05
RPL39P5 (UniProt Q59GN2) -0.047
RPL36AL (UniProt Q969Q0) -0.028
RPS6KC1 (UniProt Q96S38) 0.038
RPL23 (UniProt P62829) -0.054
RPP40 (UniProt O75818) -0.008
RRAS2 isoform 4 (UniProt P62070) 0.061
RPS23 (UniProt P62266) -0.068
RPL30 (UniProt P62888) -0.083
RPL11 (UniProt P62913) -0.055
RNF25 (UniProt Q96BH1) -0.015
RPL12 (UniProt P30050) -0.043
RPS3 (UniProt P23396) -0.056
RPA3 (UniProt P35244) -0.01
RPS25 (UniProt P62851) -0.022
RPL27 (UniProt P61353) -0.072
RPS6KA2 isoform 2 (UniProt Q15349) -0.078
RPL36A (UniProt P83881) 0.002
RP2 (UniProt O75695) 0.038
RPS17 (UniProt P08708) -0.035
RPS13 (UniProt P62277) -0.051
RRAGA (UniProt Q7L523) -0.046
RPL37 (UniProt P61927) -0.033
RPS14 (UniProt P62263) -0.048
RPL36 (UniProt Q9Y3U8) -0.074
RPS29 (UniProt P62273) -0.035
RPS6KB1 (UniProt P23443) -0.033
RPN2 (UniProt P04844) -0.006
RPL15 (UniProt P61313) -0.093
RPL5 (UniProt P46777) 0.006
RPS15 (UniProt P62841) 0.008
RPL24 (UniProt P83731) -0.004
RPS24 isoform 4 (UniProt P62847) -0.029
RPS5 (UniProt P46782) -0.052
RPS2 (UniProt P15880) -0.05
RPS26 (UniProt P62854) -0.068

Compound: COc1cccc2cc(-c3nc([C@H]4CC[C@H](C(=O)O)CC4)n4ncnc(N)c34)[nH]c12
Assay: as above
Procedure, shortened: as §1

log2 fold change, inactive:
RNF7 (UniProt Q9UBF6) -0.056
RPS20 isoform 2 (UniProt P60866) -0.157
RPS27A (UniProt P62979) -0.185
RP9 (UniProt Q8TA86) -0.054
RRBP1 (UniProt Q9P2E9) -0.203
RPL39P5 (UniProt Q59GN2) -0.16
RPL36AL (UniProt Q969Q0) -0.305
RPS6KC1 (UniProt Q96S38) 0.152
RPL23 (UniProt P62829) -0.315
RPP40 (UniProt O75818) -0.014
RRAS2 isoform 4 (UniProt P62070) 0.093
RPS23 (UniProt P62266) -0.266
RPL30 (UniProt P62888) -0.38
RPL11 (UniProt P62913) -0.442
RNF25 (UniProt Q96BH1) 0.05
RPL12 (UniProt P30050) -0.371
RPS3 (UniProt P23396) -0.149
RPA3 (UniProt P35244) -0.048
RPS25 (UniProt P62851) -0.198
RPL27 (UniProt P61353) -0.338
RPS6KA2 isoform 2 (UniProt Q15349) 0.001
RPL36A (UniProt P83881) -0.326
RP2 (UniProt O75695) 0.038
RPS17 (UniProt P08708) -0.118
RPS13 (UniProt P62277) -0.316
RRAGA (UniProt Q7L523) 0.044
RPL37 (UniProt P61927) -0.224
RPS14 (UniProt P62263) -0.154
RPL36 (UniProt Q9Y3U8) -0.355
RPS29 (UniProt P62273) -0.382
RPS6KB1 (UniProt P23443) 0.01
RPN2 (UniProt P04844) 0.005
RPL15 (UniProt P61313) -0.39
RPL5 (UniProt P46777) -0.215
RPS15 (UniProt P62841) -0.147
RPL24 (UniProt P83731) -0.387
RPS24 isoform 4 (UniProt P62847) -0.22
RPS5 (UniProt P46782) -0.126
RPS2 (UniProt P15880) -0.184
RPS26 (UniProt P62854) -0.277
